# Experimental data from publication PMC5539112.
# Protein sequences, listed by entry. Tags and fused reporters are not part of them.
# UniProt O43734: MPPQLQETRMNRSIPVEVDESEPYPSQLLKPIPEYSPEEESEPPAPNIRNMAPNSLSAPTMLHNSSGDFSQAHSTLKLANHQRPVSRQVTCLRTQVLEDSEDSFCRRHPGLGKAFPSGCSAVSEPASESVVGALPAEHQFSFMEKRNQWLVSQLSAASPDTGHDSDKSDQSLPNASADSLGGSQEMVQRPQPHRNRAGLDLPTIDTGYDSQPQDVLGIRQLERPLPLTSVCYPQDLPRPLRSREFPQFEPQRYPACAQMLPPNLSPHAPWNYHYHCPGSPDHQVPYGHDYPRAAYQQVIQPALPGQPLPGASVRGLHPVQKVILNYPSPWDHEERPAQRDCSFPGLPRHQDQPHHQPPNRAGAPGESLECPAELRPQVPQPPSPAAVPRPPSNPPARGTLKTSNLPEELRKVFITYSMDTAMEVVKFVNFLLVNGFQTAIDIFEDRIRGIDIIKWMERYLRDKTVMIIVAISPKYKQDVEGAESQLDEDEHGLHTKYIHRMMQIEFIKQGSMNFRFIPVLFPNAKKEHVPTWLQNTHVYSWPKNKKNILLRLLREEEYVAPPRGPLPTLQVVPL
# UniProt P62993: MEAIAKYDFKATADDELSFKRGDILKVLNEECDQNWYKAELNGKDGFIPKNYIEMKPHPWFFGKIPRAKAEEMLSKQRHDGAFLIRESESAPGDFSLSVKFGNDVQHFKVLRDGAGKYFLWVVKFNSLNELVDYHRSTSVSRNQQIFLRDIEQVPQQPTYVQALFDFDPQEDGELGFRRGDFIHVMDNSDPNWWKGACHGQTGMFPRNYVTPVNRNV
# Results are given in words; binding and its absence hold for the method and conditions named. Binding seen in cells or lysates may run through a third protein. Some binding calls cover weakened binding; strength is not graded here.
# Target: Act1 (human (endogenous in primary FLS cells)) (UniProt O43734)
# Experiment: co-IP; whole cell lysates of human primary FLS cells left untreated or treated with FGF2 (50 ng/ml) for the indicated times; immunoprecipitated with anti-Act1 (0.5 ug) and protein A beads overnight at 4 °C, washed four times with lysis buffer, immunoblotted
substance,measurement,value
Grb2 (from UniProt P62993 1-217),binding,binds
